Assay results as given in PMC8032764 (Scientific Reports, 2021).

Legend:
GABAA α5β3γ2 = conditions: Table S4a, cited from earlier work
healthy volunteers = test: Resting state EEG in healthy volunteers; type: in vivo, human
[1] = midazolam single dose, 1 h post dose

## CCOC(=O)c1ncn2c1[C@@H]1CCCN1C(=O)c1cc(OC)ccc1-2 [L-655,708]
GABAA α5β3γ2; ref Atack et al., 2006
  α1/ α5 fold selectivity: 70 fold

## Cc1cc(-c2nncc3c(C(C)(C)C)c(OCc4ncnn4C)nn23)no1 [MRK-016, 3-tert-butyl-7-(5-methylisoxazol-3-yl)-2-(1-methyl-1H-1,2,4-triazol-5-ylmethoxy)-pyrazolo[1,5-d]-[1,2,4]triazine]
GABAA α5β3γ2; ref Atack et al. 2009
  α1/ α5 fold selectivity: 1 fold

## COCc1ncn2c1CN(C)C(=O)c1cc(Cl)ccc1-2 [PWZ-029]
GABAA α5β3γ2; ref Savić et al., 2008
  α1/ α5 fold selectivity: 31 fold

## FC(F)c1ncn2c1Cn1ncnc1-c1cc(Br)ccc1-2 [RO4938581]
GABAA α5β3γ2; ref Ballard et al., 2008
  α1/ α5 fold selectivity: 38 fold

## Cc1onc(-c2ccc(F)cc2)c1COc1ccc(C(=O)N2CCS(=O)(=O)CC2)cn1 [basmisanil]
Healthy volunteers; 240 mg twice daily, 14 days
  peak frequency of the beta- to low gamma effect: 34.9 ± 3.13 Hz
  peak frequency of the low-frequency effect: 7.3 ± 0.4 Hz

## Cc1ncc2n1-c1ccc(Cl)cc1C(c1ccccc1F)=NC2 [midazolam]
Healthy volunteers; [1]
  peak frequency of the beta band effect: 18.4 ± 6.06 Hz
  peak frequency of the low-frequency effect (high theta to low alpha): 8.2 ± 4.12 Hz

## Cc1cc(-c2nnc3c4ccccc4c(OCc4cn(C)nn4)nn23)no1 [α5IA]
GABAA α5β3γ2; ref Dawson et al., 2006
  α1/ α5 fold selectivity: 1 fold

Where two headings read alike, the source gives them in different places.
